# Results: PubChem BioAssay AID2551 (National Center for Advancing Translational Sciences (NCATS), 2010)
# Protein sequences, listed by entry. Tags and fused reporters are not part of them. Lines headed by an entry give the natural chain unless they say otherwise; changes in a name come on top.
# UniProt P51450: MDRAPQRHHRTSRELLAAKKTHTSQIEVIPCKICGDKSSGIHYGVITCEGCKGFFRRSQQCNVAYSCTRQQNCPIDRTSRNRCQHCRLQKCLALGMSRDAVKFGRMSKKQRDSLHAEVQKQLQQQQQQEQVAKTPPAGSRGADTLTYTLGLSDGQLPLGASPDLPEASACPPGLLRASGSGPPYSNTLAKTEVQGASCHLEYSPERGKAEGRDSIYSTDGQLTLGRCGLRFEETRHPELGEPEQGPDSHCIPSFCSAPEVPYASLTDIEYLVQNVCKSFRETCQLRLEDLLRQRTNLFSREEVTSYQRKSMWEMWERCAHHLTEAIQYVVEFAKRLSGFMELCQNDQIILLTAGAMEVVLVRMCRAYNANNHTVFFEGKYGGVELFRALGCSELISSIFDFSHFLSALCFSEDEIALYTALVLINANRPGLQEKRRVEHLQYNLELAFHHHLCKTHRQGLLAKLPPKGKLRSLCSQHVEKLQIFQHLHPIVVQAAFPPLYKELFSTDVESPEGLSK
# Values joined by “and” are separate entries in the source; they are usually repeats but may differ in a detail not shown here. Equal entries are not always repeated. The campaign covered roughly 310,000 compounds. About 17,000 (5.5%) were called active. The shares of active, inactive and inconclusive entries below differ from those in the screen. Calls come from the whole dose curve; as a rule, active = well fitted inhibition curve with a large enough effect; inconclusive = small, poorly fitted or top-dose-only effect, or effect the other way; inactive = no such curve, though single readings can be large or run the other way. A potency beside an inconclusive call is a rough fit, not a confirmed value.
# Target: Nuclear receptor ROR-gamma (Mus musculus) (UniProt P51450)
# Assay: qHTS for inhibitors of ROR gamma transcriptional activity; note: nearly all actives have a fitted effect of over 60% in size
# Conditions: Drosophila S2 Gal4-RORgamma UAS-luciferase reporter, 20 h; activity change, negative = inhibition: at 53.6 µM (top of the series)
# Method in brief: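 Drosophila S2 cells stably expressing Gal4-DBD/mouse RORγ fusion under metallothionein promoter plus UAS-luciferase; compound 1 h, then 700 uM CuSO4 induction for 20 h at ambient temperature; inhibition read as reduced luminescence.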
# % is set by controls: 0 for no effect and ±100 for the full control effect; potency is the fitted concentration of half-maximal effect.
Compound,Potency,"activity change, negative = inhibition"
COc1ccccc1CCNC(=O)CCSc1nc(-c2ccco2)cc(C(F)(F)F)n1,"inconclusive: 31.6 µM [inhibitor, single point]",–
COc1ccc(Cc2nc3ccc(C(=O)N4C[C@@H](C)O[C@@H](C)C4)cc3o2)cc1OC,"inconclusive: 5.01 µM [activator, partial curve]",–
O=C(CSc1nnc(Nc2ccccc2)s1)NCc1cccs1,"inconclusive: 35.5 µM [activator, single point]",–
O=C(N1CCOCC1)N1CCCN(C(=O)N2CCOCC2)CC1,"inconclusive: 0.398 µM [inhibitor, single point]",–
Cc1ccc2c(c1)C1CN(C)CCC1N2C(=S)NC(=O)c1ccc(Br)cc1 (configuration not stated),active: 0.112 µM,–
CC1=CC(C)(C)Nc2ccc(OC(=O)CCN3C(=O)c4ccccc4C3=O)cc21,"inconclusive: 15.8 µM [inhibitor, single point]",–
CC(C)Cn1c(O)c(/C=C2\C=NN=C2c2ccccc2)sc1=S,"inconclusive: 17.8 µM [inhibitor, single point]",–
Cc1ccc(C)c(-c2ccc(=O)n(Cc3cccc(Br)c3)n2)c1,–,inactive: 8.95%
CCOC(=O)C1CCCN(c2nc(C)nc3c2oc2ccccc23)C1 (configuration not stated),"inconclusive: 22.4 µM [inhibitor, single point]",–
CCN(CC)C(=O)CC(c1ccc(OC)cc1)c1c(OC)cc(OC)c2c(-c3ccccc3)cc(=O)oc12 (configuration not stated),"inconclusive: 25.1 µM [activator, single point]",–
CSc1cccc(NC(=O)CN(C)S(=O)(=O)c2ccc(F)cc2)c1,"inconclusive: 35.5 µM [activator, single point]",–
c1cnc(SCCCOc2ccc3ccccc3c2)nc1,"inconclusive: 10 µM [activator, partial curve, poor fit]",–
CCN(c1ccccc1)S(=O)(=O)c1ccc(C(=O)Nc2nnc(-c3ccco3)o2)cc1,active: 0.1 µM,–
COCCNC(=O)/C(C#N)=C/c1cc(C)n(-c2ccc(C)cc2)c1C,–,inactive: 2.75%
O=C(c1cc(COc2c(F)cccc2F)on1)N1CCSCC1,"inconclusive: 12.6 µM [activator, single point]",–
CCOC(=O)C1=C([Si](C)(C)C)c2ccccc2N(S(=O)(=O)C(F)(F)F)C1C(=O)OCC (configuration not stated),"inconclusive: 11.2 µM [activator, partial curve]",–
CC(=O)Nc1ccc2nc(C3CC3)n(Cc3ccc(Cl)cc3)c(=O)c2c1,"inconclusive: 12.6 µM [activator, partial curve]",–
CC(NCc1ccc([N+](=O)[O-])cc1)C1COc2ccccc2O1 (configuration not stated),–,inactive: -0.72%
Cc1nc2sc(C(c3ccco3)N3CCN(c4ccccc4F)CC3)c(O)n2n1 (configuration not stated),–,inactive: 5.1%
O=c1[nH]c(C2CCCN(S(=O)(=O)c3cccc(F)c3)C2)nc2c1nnn2Cc1ccccc1 (configuration not stated),"inconclusive: 35.5 µM [activator, single point]",–
Cc1ccnc(NC(=O)c2cccc(NS(=O)(=O)c3ccccc3C)c2)c1,"inconclusive: 11.2 µM [activator, partial curve]",–
Fc1ccc(NC(=S)Nc2cc(-c3ccccc3)[nH]n2)cc1Cl,active: 0.794 µM,–
O=C(CCCOc1ccccc1)NC(=S)Nc1ccccc1,active: 10 µM,–
Cc1cc(C(=O)CN2C(=O)c3ccccc3C2=O)c(C)n1Cc1cccs1,"inconclusive: 3.16 µM [activator, single point]",–

# Sorted by molar mass (largest number first): part of the list above.
Compound,Potency,"activity change, negative = inhibition"
O=c1[nH]c(C2CCCN(S(=O)(=O)c3cccc(F)c3)C2)nc2c1nnn2Cc1ccccc1 (configuration not stated),"inconclusive: 35.5 µM [activator, single point]",–
CCN(c1ccccc1)S(=O)(=O)c1ccc(C(=O)Nc2nnc(-c3ccco3)o2)cc1,active: 0.1 µM,–
O=C(N1CCOCC1)N1CCCN(C(=O)N2CCOCC2)CC1,"inconclusive: 0.398 µM [inhibitor, single point]",–

# (next part)

Compound,Potency,"activity change, negative = inhibition"
COc1ccc(C(=O)C(OC(=O)c2ccccc2)c2ccccc2)cc1 (configuration not stated),–,inactive: 27.4%
CC(C)c1ccc(N2C(=O)CC(NNC(=O)c3ccccc3Cl)C2=O)cc1 (configuration not stated),"inconclusive: 2.51 µM [activator, full curve]",–
COc1ccc(N2CCN(C(=O)c3cccc(N4C(=O)C5CC=CC(C)C5C4=O)c3)CC2)cc1 (configuration not stated),"inconclusive: 10 µM [activator, partial curve]",–
Cn1c(C(=O)O)c(CC(=O)Nc2ccc3c(c2)OCCO3)c2ccccc21,–,inactive: 18.9%
O=C(Nc1ccc(NC(=O)c2ccco2)nc1)c1cccc(F)c1,–,inactive: -6.84%
Cc1c(Cl)cccc1NC(=S)NN1CCOCC1,active: 10 µM,–
CC(OC(=O)c1ccc2c(=O)n3c(nc2c1)CCC3)C(=O)NC1CCCCC1C (configuration not stated),–,inactive: -2.46%
CCOc1ccc2c(c1)-c1c(ssc1=S)C(C)(C)N2C(=O)CSC1=NCCS1,active: 3.16 µM,–
Cn1ccnc1SCC(=O)n1c2c(c3ccccc31)CCCC2,active: 14.1 µM,–
Cc1ccc(OCCn2c(Br)nc3c2c(=O)n(C)c(=O)n3C)cc1,"inconclusive: 0.282 µM [activator, partial curve]",–
O=C(Nc1ccc(F)c(F)c1)c1ccc2c(c1)OCO2,"inconclusive: 1.78 µM [activator, partial curve, poor fit]",–
Nc1ccccc1C(=O)/C=C/c1ccc2c(c1)OCO2,"inactive and inconclusive: 10 µM [inhibitor, partial curve, poor fit]",–
COc1cccc(-n2nc(C#N)c(Cl)cc2=O)c1,active: 3.55 µM,–
Cc1cc(C)nc(SCc2nnc(SCC(=O)Nc3nc(-c4ccccc4)cs3)n2C)n1,–,inactive: -16.7%
CCOC(=O)c1c(C)[nH]c(C(=O)OCCOc2ccccc2C)c1C,"inconclusive: 10 µM [inhibitor, partial curve, poor fit]",–
CC(=O)Nc1cn(-c2ccccc2)nc1-c1ccccc1,–,inactive: 21.1%
CC(/C=N/N1CCN(c2ccccc2)CC1)=C\c1ccccc1,–,inactive: 16%
Cc1c(Cl)cccc1N=C(N)N=C(N)N,"inconclusive: 10 µM [activator, partial curve]",–
CCN(c1ccccc1)c1cc(C)nc2ncnn12,"inconclusive: 35.5 µM [activator, single point]",–
COc1ccc(/C=C/C(=O)c2ccc(NC(=O)c3cccs3)cc2)cc1OC,active: 2.51 µM,–
Cc1ccc(C(=O)C2=C(O)C(=O)N(c3ncccn3)C2c2cccc(Cl)c2)o1 (configuration not stated),–,inactive: 17%
Cc1cccn2cc(-c3ccc(F)cc3)nc12,"inconclusive: 7.08 µM [inhibitor, partial curve]",–
Cc1cccc(/C=N/Nc2ccc3ccccc3n2)c1,active: 2.82 µM,–
COc1ccc(C(CC(=O)Nc2cc(OC)cc(OC)c2)n2cccc2)cc1 (configuration not stated),"inconclusive: 17.8 µM [activator, partial curve, poor fit]",–

# Whole records, looked up by structure:
# `COc1ccc(/C=C/C(=O)c2ccc(NC(=O)c3cccs3)cc2)cc1OC` is listed with Potency: active: 2.51 µM
# `CCOC(=O)c1c(C)[nH]c(C(=O)OCCOc2ccccc2C)c1C` is listed with Potency: inconclusive: 10 µM [inhibitor, partial curve, poor fit]

# Remaining list, next part.

Compound,Potency,"activity change, negative = inhibition"
O=[N+]([O-])c1cc(S(=O)(=O)Nc2cccc(C(F)(F)F)c2)ccc1-n1nnc2ccccc21,"inconclusive: 12.6 µM [activator, single point]",–
COCCN(CCOC)c1nc(C)nc2c1nc(-c1ccccc1)n2CCN1CCCC1,–,inactive: -7.58%
CCCCNC(=O)c1cccc2c(=O)c(C)c(-c3ccccc3)oc12,"inconclusive: 11.2 µM [activator, partial curve]",–
O=C(NCc1ccco1)c1ccc(=O)oc1,"inconclusive: 0.158 µM [inhibitor, full curve, poor fit]",–
Cc1cccc(C(=O)N=c2c(C#N)cc3c(=O)n4cccc(C)c4nc3n2Cc2ccco2)c1,–,inactive: -15.9%
CCOC(=O)C1=C(C)N=C2SC(C(=O)OC)=CC(=O)N2C1c1cccc(OC)c1 (configuration not stated),"inconclusive: 3.98 µM [activator, full curve, poor fit]",–
CC(=O)Nc1ccc(S(=O)(=O)c2cc(O)ccc2O)cc1,"inconclusive: 35.5 µM [activator, single point]",–
COc1cc(CC(=O)OCC(=O)Nc2cc(S(=O)(=O)N3CCCC3)ccc2Cl)cc(OC)c1OC,"inconclusive: 8.91 µM [activator, partial curve]",–
COC(=O)Nc1ccc(S(=O)(=O)N2CCCCC2)cc1,–,inactive: 14.9%
CCCCNC(=S)NNC(=O)c1csc2c1CCC(C)C2 (configuration not stated),"inconclusive: 2.82 µM [inhibitor, partial curve]",–
COc1ccc(NC(=S)NCc2ccc3c(c2)cc(C)n3C)cc1,active: 4.47 µM,–
CC(/C=C/c1ccccc1)=N/NC(=O)c1cccc(Br)c1,active: 2.24 µM,–
COc1cc(O)c(C(=O)/C=C/c2ccc(OC)c(O)c2)c(OC)c1,"inconclusive: 22.4 µM [inhibitor, single point]",–
COc1ccc(C2=NS(=O)(=O)N(C)C(C(=O)Nc3cc(C)ccc3O)=C2)cc1OC,"inconclusive: 20 µM [activator, single point]",–
CCCCCCn1c(C(C)O)nc2ccccc21 (configuration not stated),–,inactive: -19%
COc1ccc(N2CCN(C(=O)CN(c3cccc(OC)c3)S(=O)(=O)c3ccccc3)CC2)cc1,"inconclusive: 4.47 µM [activator, partial curve]",–
Cc1noc(C)c1C(=O)Nc1ccc(C#N)cc1,"inconclusive: 0.112 µM [activator, full curve, poor fit]",–
CCCNS(=O)(=O)c1ccc(CCC(=O)Nc2cc(Cl)ccc2Oc2ccccc2)cc1,"inconclusive: 0.0891 µM [activator, single point]",–
CSC1=Nc2sc3c(c2C2=NCCN12)CCCC3,"inconclusive: 2.24 µM [inhibitor, full curve, poor fit]",–
O=C(NCCc1cccnc1)C1CCC(=O)N(Cc2ccc(Cl)cc2)C1 (configuration not stated),–,inactive: -13.2%
O=C(CSc1nc(-c2ccco2)cc(C(F)(F)F)n1)N1CCc2ccccc2C1,"inconclusive: 35.5 µM [inhibitor, single point]",–
CCNc1nc(NC(C)CC)nc(ON=C(C)C)n1 (configuration not stated),active: 14.1 µM,–
CCN(C(=O)CSc1nnnn1-c1ccccc1)C1CCS(=O)(=O)C1 (configuration not stated),–,inactive: 9.23%
CCc1nnc(NS(=O)(=O)c2ccc(NC(=O)c3cc(Cl)ccc3Cl)cc2)s1,"inconclusive: 35.5 µM [activator, single point]",–
